Measured values taken from paper PMC6473174, “Ranking Hits From Saturation Transfer Difference Nuclear Magnetic Resonance–Based Fragment Screening” (Frontiers in Chemistry, 2019).

Molecular target: T1, murine langerin (Mus musculus, UniProt Q8VBX4)
T1 sequence (Q8VBX4 1-331): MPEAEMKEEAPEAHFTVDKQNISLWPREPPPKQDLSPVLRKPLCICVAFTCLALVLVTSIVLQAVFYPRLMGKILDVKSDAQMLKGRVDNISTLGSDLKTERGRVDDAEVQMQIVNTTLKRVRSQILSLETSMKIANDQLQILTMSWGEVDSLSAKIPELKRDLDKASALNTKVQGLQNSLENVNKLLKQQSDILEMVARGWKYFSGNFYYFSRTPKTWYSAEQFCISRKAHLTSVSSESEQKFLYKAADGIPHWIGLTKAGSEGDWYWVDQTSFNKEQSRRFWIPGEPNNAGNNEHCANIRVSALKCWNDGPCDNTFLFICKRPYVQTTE
Assay: STD NMR measurements (fragment screening and epitope mapping), STD amplification factor
Format: binding
Conditions: Figure 1a fragment screening; [P] = 10 μM, [L] = 0.2 mM, tsat = 4 s
Experimental: STD NMR experiments were performed as described elsewhere (Aretz et al., [2018]). Briefly, 10 μM murine langerin was screened against a library of 660 fragments at a ligand concentration [L] = 0.2 mM using a saturation time of tsat = 4 s. Hits were counter-screened by SPR (see the section Estimation of Affinity Using Surface Plasmon Resonance), enabling affinity estimation and hit validation. For SPR-validated hits, the STD amplification factor was determined as reported earlier (Mayer and Meyer, [2001]) and plotted against affinity (Figure 1A). For epitope mapping of thiazolopyrimidine derivatives (Figure 2E), protein concentration was [P] = 20 μM, ligand concentration was [L] = 0.5–1 mM, and tsat = 1 s. Affinity of all derivatives was estimated by SPR (see the section Estimation of Affinity Using Surface Plasmon Resonance), and the STD amplification factor was determined as reported earlier for the proton in the 7-position of the thiazolopyrimidine scaffold (Mayer and Meyer, [2001]). Spectra were analyzed in MestReNova 10.0.0.

- STD amplification factor: 31
SMILES: COC(=O)c1ccc(NC(C)=O)cc1O [S9]
